One molecule from patent publication US11844846B2, “Styrylbenzothiazole derivatives and uses in imaging methods” (Emory University, priority 2018, dated 2023) can be followed below.

Chains of the proteins cited; added tags and fusions are not shown. Residues count along the entry.
UniProt P05067, 672-713 limits assumed: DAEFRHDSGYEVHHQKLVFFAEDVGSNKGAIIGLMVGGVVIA

Usually Kd stands for a measure of binding affinity in units of concentration. Read a low Kd as higher affinity.

One test relates to Tau fibrils in AD cases. Briefly: [18F]F0502B binding to patient brain insoluble fibrillar fractions, Tau. More on the design: species or system human. As to the method:
(§1) [^18F]F0502B was evaluated in vitro and ex vivo binding assays to validate its specificity. α-Syn, Tau and Aβ PFFs were respectively incubated with increasing concentrations of [^18F]F0502B. The binding data were analyzed by curve fitting using nonlinear regression to obtain Kd and Bmax values. The Kd and a Bmax manifested the specific binding affinity with different fibrils. The affinity of [^18F]F0502B for AD 1-42 or Tau fibrils was much lower than that for α-Syn fibrils. […] To determine whether a binding site identified on recombinant α-Syn fibrils is also present in PD tissues, and to determine whether the density of binding sites is high enough to image fibrillar α-Syn in vivo, experiments on the binding of [^18F]F0502B to LBD, AD patient and control brain homogenates were conducted as well as extracted α-Syn, Tau and Aβ insoluble fibrillar fractions prepared from these samples, Kd and Bmax values for the PD cases were 37.47 nM and 14.3 pmol/nmol. In contrast, the Kd and Bmax values for Aβ fibrils in AD cases were 950.4 nM and 10.8 pmol/nmol and for Tau fibrils in AD cases were 1883 nM and 6.9 pmol/nmol. […] Autoradiography with [^18F]F0502B in human brain slices was performed. [^18F]F0502B selectively associated with the Lewy bodies in the brain sections from A53T PD mice but not in WT and AD transgenic mice. […]

In test [1] the target is Lewy bodies in the brain sections from LBD patients (Homo sapiens, UniProt P37840). Briefly: autoradiography with [18F]F0502B, human brain slices. It counts as binding. The note with it: LBD versus AD patients. As to the method:
as §1

Another test concerns the target α-Syn fibrils (Homo sapiens, UniProt P37840). Briefly: [18F]F0502B saturation binding to α-Syn fibrils. The note with it: synthetic fibrils, result in words. As to the method:
as §1

The target of test [2] is α-Syn insoluble fibrillar fraction, PD cases (Homo sapiens, UniProt P37840). Briefly: [18F]F0502B binding to patient brain insoluble fibrillar fractions, α-Syn. Here is the method:
as §1

Test [3] addresses Lewy bodies in the brain sections from A53T PD mice (Homo sapiens, UniProt P37840, A53T). Briefly: autoradiography with [18F]F0502B, mouse brain sections. The format is binding. The note with it: A53T PD versus WT and AD transgenic mice. Here is the method: as §1
The target in test [4] is Lewy body in the SN regions (Homo sapiens, UniProt P37840, A53T). Description: microPET-CT imaging in mice. Here is the method: To assess the performance of the developed PET tracer in a rodent PD model, microPET-CT imaging was performed in mice by the tail vein injection of [^18F]F0505B. Brain images were obtained 1 h after administration of radioactive PET Tracer in a A53T PD model. […] The mice were anesthetized using isoflurane and positioned in a prone position in the microPET-CT scanner with the brain in the field of view.
Following the acquisition of a CT attenuation correction scan, the mice were injected with the [^18F]-compound13 via the tail vein. Image voxel intensities represent absolute tracer concentration in units of μCi/ml. […] Though radioactive signals were found in the neck of 5×FAD mice, they were outside the brain.

In a further test the target is Aβ fibrils in AD cases (Homo sapiens, UniProt P05067). Briefly: [18F]F0502B binding to patient brain insoluble fibrillar fractions, Aβ. Here is the method:
as §1

The structures given here were assigned with low confidence; some may be wrong.

As for `Cc1cc2nc(/C=C/c3ccc(O)c(Br)c3)sc2cc1N(C)CCOCC[18F]`, the Bmax was 6.9 pmol/nmol in the test on Tau fibrils in AD cases, 14.3 pmol/nmol in test [2] and 10.8 pmol/nmol on Aβ fibrils in AD cases. The values for the Kd (in the test with Tau fibrils in AD cases; in test [2]; at Aβ fibrils in AD cases) were 1880 nM, 37.5 nM and 950 nM, respectively. In addition, in test [1], the “autoradiography binding in human brain sections” value was “selectively associated with the Lewy bodies in the brain sections from LBD but not AD patients”. The “binding affinity for α-Syn fibrils” value on α-Syn fibrils is given as “high binding affinity for synthetic α-Syn”. The “autoradiography binding in mouse brain sections” value in test [3] is “selectively associated with the Lewy bodies in the brain sections from A53T PD mice but not in WT and AD transgenic mice”. Also, the PET signal result in test [4] (5×FAD mice) is recorded as “radioactive signals were found in the neck of 5×FAD mice, they were outside the brain”; in test [4] (A53T PD mice), “specifically lighted up the Lewy body in the SN regions in A53T PD mice”; in test [4] (WT or Tau P301S mice) it was “no signals were observed in WT or Tau P301S mice”.
